At least one compound was matched to its structure with a doubt left.
Test system: primary cultures of human neurons exposed to Aβ1-42 aggregates
Assay: Rescue of neuronal death caused by Aβ1-42 aggregates (MTT assay)
Type: cell-based
Conditions: 1 μM Aβ1-42 at 0 h, compounds added after 24 h, MTT after additional 24 h; tested 1 nM to 100 μM

Compound	dosage range that significantly rescued neuronal death [µM]
NC(=O)c1ccc[n+]([C@@H]2O[C@H](COP(=O)([O-])OP(=O)(O)OC[C@H]3O[C@@H](n4cnc5c(N)ncnc54)[C@H](O)[C@@H]3O)[C@@H](O)[C@H]2O)c1 [NAD+, oxidized nicotinamide adenine dinucleotide]	0.1 to 100
NC(=O)C1=CN([C@@H]2O[C@H](COP(=O)(O)OP(=O)(O)OC[C@H]3O[C@@H](n4cnc5c(N)ncnc54)[C@H](O)[C@@H]3O)[C@@H](O)[C@H]2O)C=CC1 [NADH, reduced nicotinamide adenine dinucleotide]	0.1 to 100
